Results on 3 molecules are retold here after paper doi:10.1101/2024.09.20.612365, “Preventing Inappropriate Signals Pre- and Post-Ligand Perception by a Toggle-Switch Mechanism of ERECTA” (bioRxiv, 2024).

Assay [1] concerns the target T1, ER-FLAG (Arabidopsis) (UniProt Q42371).
T1 sequence: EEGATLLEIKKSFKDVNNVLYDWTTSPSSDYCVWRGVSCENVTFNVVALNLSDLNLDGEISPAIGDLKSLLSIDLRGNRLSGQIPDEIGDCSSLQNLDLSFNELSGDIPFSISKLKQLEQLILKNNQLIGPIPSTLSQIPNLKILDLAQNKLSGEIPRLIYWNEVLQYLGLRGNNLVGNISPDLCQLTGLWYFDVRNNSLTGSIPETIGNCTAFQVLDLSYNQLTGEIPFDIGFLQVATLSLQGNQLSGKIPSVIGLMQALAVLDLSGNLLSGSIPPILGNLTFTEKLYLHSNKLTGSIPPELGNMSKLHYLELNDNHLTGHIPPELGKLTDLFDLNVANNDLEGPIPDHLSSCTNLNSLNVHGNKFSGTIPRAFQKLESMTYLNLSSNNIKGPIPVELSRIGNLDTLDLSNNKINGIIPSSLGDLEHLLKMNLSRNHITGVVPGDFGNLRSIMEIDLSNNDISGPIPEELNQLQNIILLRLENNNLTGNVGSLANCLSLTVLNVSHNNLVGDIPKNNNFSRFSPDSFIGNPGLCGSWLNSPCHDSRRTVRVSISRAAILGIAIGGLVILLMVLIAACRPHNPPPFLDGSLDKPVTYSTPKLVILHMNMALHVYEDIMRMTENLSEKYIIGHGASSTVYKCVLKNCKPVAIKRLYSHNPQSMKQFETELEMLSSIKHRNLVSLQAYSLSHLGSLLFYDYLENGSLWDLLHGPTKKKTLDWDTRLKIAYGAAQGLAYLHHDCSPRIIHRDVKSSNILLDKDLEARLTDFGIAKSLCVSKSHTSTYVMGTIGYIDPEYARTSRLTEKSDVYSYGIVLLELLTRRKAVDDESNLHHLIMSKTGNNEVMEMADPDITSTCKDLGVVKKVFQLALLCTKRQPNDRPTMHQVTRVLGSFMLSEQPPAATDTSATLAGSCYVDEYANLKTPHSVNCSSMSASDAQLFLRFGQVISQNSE
Put plainly: co-IP; Arabidopsis protoplasts co-transfected with PUB30-MYC or PUB31-MYC and ER-FLAG variants; 5 μM EPFL6 for 1 h; immunoprecipitated with anti-FLAG beads, blots with anti-FLAG and anti-MYC.

Assay [2] deals with T2, ER_(T/S8E)-FLAG, phosphomimetic version (Arabidopsis) (UniProt Q42371).
T2 sequence: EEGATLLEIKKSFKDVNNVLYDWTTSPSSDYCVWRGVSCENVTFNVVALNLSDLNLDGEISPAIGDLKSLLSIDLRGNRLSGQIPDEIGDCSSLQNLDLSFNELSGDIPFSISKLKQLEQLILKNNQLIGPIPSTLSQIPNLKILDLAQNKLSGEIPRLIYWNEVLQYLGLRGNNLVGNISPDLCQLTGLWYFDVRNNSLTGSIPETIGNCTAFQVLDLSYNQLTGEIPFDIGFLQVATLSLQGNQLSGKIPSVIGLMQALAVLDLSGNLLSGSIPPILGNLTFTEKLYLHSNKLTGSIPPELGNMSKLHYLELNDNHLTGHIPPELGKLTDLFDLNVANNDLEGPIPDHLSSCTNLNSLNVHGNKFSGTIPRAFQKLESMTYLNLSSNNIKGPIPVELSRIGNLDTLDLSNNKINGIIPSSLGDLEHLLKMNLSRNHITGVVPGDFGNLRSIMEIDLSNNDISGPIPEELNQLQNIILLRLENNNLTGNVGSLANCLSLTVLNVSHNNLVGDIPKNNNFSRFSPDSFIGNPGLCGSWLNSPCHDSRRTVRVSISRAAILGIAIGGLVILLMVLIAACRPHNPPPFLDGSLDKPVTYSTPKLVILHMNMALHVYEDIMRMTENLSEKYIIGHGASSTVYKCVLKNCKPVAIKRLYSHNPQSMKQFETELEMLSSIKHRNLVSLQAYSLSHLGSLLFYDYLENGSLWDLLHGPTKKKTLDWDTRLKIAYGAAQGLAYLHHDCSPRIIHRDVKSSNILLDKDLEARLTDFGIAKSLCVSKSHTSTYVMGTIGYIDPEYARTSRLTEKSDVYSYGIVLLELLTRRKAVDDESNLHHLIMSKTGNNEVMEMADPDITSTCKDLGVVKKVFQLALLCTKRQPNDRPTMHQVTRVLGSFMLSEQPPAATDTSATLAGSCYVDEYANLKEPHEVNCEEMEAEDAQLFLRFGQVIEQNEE
The description is as above.

Assay [3] has as its target T3, ER_(T/S8A)-FLAG, phosphonull version (Arabidopsis) (UniProt Q42371).
T3 sequence: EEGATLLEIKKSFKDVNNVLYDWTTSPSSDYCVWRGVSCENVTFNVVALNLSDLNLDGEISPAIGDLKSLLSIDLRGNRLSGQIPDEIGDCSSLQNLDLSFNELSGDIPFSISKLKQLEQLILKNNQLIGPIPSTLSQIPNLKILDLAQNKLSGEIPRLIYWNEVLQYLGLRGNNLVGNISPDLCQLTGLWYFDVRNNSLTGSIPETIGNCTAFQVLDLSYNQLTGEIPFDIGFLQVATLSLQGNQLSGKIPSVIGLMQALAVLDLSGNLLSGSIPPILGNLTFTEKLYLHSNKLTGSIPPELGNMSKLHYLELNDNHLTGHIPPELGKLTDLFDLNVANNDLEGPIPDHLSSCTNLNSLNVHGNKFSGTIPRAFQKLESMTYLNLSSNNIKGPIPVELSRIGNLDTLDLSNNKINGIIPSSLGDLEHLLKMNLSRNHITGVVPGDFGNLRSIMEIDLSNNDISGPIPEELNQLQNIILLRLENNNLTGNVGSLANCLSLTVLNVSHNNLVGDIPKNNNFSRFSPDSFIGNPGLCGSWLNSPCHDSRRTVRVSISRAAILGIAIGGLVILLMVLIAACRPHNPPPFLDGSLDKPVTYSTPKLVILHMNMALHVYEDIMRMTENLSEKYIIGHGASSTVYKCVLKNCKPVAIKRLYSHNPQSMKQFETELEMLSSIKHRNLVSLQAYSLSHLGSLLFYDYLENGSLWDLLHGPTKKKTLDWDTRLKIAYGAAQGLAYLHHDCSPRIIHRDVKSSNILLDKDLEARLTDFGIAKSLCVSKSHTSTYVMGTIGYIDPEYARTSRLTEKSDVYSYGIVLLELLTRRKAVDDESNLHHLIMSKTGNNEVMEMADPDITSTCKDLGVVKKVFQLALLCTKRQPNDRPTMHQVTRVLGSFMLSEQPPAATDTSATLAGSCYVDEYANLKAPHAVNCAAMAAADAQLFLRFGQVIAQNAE
The assay is described as above.

The target in assay [4] is T4, PUB30-YFP (Arabidopsis) (UniProt Q058P4).
T4 sequence: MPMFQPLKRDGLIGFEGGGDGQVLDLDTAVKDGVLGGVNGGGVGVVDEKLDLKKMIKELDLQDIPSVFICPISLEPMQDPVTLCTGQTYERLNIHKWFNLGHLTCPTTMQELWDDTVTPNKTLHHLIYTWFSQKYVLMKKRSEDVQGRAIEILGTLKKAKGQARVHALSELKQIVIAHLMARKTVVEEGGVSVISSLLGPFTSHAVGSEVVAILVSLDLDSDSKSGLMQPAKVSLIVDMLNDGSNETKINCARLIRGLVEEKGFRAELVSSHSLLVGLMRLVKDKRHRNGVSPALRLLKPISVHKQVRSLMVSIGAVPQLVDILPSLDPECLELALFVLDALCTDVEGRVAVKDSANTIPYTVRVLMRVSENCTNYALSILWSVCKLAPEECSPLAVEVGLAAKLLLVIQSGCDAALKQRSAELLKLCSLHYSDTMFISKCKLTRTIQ
Put plainly: co-IP; proteins from transgenic Arabidopsis plants (PUB30pro::PUB30-YFP with ERpro::ER-FLAG variants) immunoprecipitated with anti-GFP beads, blots with anti-GFP and anti-FLAG.

These are yes or no findings as the source states them, for the method shown. In cells and extracts the contact can be indirect. Some entries that bind do so weakly or less than the wild type. Sequences can lack the tags named with a protein.

B1: GST-PUB30 (plant U-box E3 ligase PUB30) (enzyme)
chain: MPMFQPLKRDGLIGFEGGGDGQVLDLDTAVKDGVLGGVNGGGVGVVDEKLDLKKMIKELDLQDIPSVFICPISLEPMQDPVTLCTGQTYERLNIHKWFNLGHLTCPTTMQELWDDTVTPNKTLHHLIYTWFSQKYVLMKKRSEDVQGRAIEILGTLKKAKGQARVHALSELKQIVIAHLMARKTVVEEGGVSVISSLLGPFTSHAVGSEVVAILVSLDLDSDSKSGLMQPAKVSLIVDMLNDGSNETKINCARLIRGLVEEKGFRAELVSSHSLLVGLMRLVKDKRHRNGVSPALRLLKPISVHKQVRSLMVSIGAVPQLVDILPSLDPECLELALFVLDALCTDVEGRVAVKDSANTIPYTVRVLMRVSENCTNYALSILWSVCKLAPEECSPLAVEVGLAAKLLLVIQSGCDAALKQRSAELLKLCSLHYSDTMFISKCKLTRTIQ
As for B1, the values for the binding result in assay [1], in assay [2] and in assay [3] were “binds”, “binds” and “binds weakly”, respectively.

B2: ER-FLAG (receptor, UniProt Q42371 25-976)
chain: EEGATLLEIKKSFKDVNNVLYDWTTSPSSDYCVWRGVSCENVTFNVVALNLSDLNLDGEISPAIGDLKSLLSIDLRGNRLSGQIPDEIGDCSSLQNLDLSFNELSGDIPFSISKLKQLEQLILKNNQLIGPIPSTLSQIPNLKILDLAQNKLSGEIPRLIYWNEVLQYLGLRGNNLVGNISPDLCQLTGLWYFDVRNNSLTGSIPETIGNCTAFQVLDLSYNQLTGEIPFDIGFLQVATLSLQGNQLSGKIPSVIGLMQALAVLDLSGNLLSGSIPPILGNLTFTEKLYLHSNKLTGSIPPELGNMSKLHYLELNDNHLTGHIPPELGKLTDLFDLNVANNDLEGPIPDHLSSCTNLNSLNVHGNKFSGTIPRAFQKLESMTYLNLSSNNIKGPIPVELSRIGNLDTLDLSNNKINGIIPSSLGDLEHLLKMNLSRNHITGVVPGDFGNLRSIMEIDLSNNDISGPIPEELNQLQNIILLRLENNNLTGNVGSLANCLSLTVLNVSHNNLVGDIPKNNNFSRFSPDSFIGNPGLCGSWLNSPCHDSRRTVRVSISRAAILGIAIGGLVILLMVLIAACRPHNPPPFLDGSLDKPVTYSTPKLVILHMNMALHVYEDIMRMTENLSEKYIIGHGASSTVYKCVLKNCKPVAIKRLYSHNPQSMKQFETELEMLSSIKHRNLVSLQAYSLSHLGSLLFYDYLENGSLWDLLHGPTKKKTLDWDTRLKIAYGAAQGLAYLHHDCSPRIIHRDVKSSNILLDKDLEARLTDFGIAKSLCVSKSHTSTYVMGTIGYIDPEYARTSRLTEKSDVYSYGIVLLELLTRRKAVDDESNLHHLIMSKTGNNEVMEMADPDITSTCKDLGVVKKVFQLALLCTKRQPNDRPTMHQVTRVLGSFMLSEQPPAATDTSATLAGSCYVDEYANLKTPHSVNCSSMSASDAQLFLRFGQVISQNSE
In the case of B2, in assay [4], the binding entry was “binds”.

B3: PUB31-MYC (enzyme, UniProt Q9FHN9 1-444)
chain: MPMFQPSKNGGFDGHILDLHSAVKDGVLGGGDGKFLVVVTDEKKKLDLKEMISELELPEIPSVFICPISLEPMQDPVTLCTGQTYERSNILKWFNIGHCTCPTTMQELWDDLVTPNKTLHQLIYTWFSQKYVLMKKRSEDVQGRAIEILGTLRKAKGKAKVHALSELKQVVMAHAIAKKTVVDEGGVFVISSLLSPFTSHAVGSEAIAILVNLELDSDSKAGLMQPARVSLMVDMLNDGSIETKINCARLIGRLVEEKGFRAELVSSHSLLVGLMRLVKDRRRRNGVSPALTLLKSVSVHKQVRNLLVRIGAVPQLVDVLPCLDVECLESALFVLDSLCLESEGRIALKDSVNTIPHTVRLLMKVSEKCTNYAISILWSVCKLASEECSSLAVEVGLAAKLLLVIQSGCDPALKQRSAELLKLCSLHYSDSMFISKCKLTRTIQ
Regarding B3, the binding entry in assay [1] is “binds”; in assay [2], “binds”; in assay [3], “binds weakly”.
